Over roughly 33,000 sequences, “E-score (-0.5 to 0.5)” has its median near -0.0014; the highest 2% begin near 0.25. The list shows a part of the results.
molecular target: T1, Cad1 (UniProt P24813); assay: PBM E-score (8-mer binding enrichment) (E-score (-0.5 to 0.5)); higher = stronger / more preferred TF binding; conditions: protein concentration: 100 nM; construct: GST-full length
T1 sequence: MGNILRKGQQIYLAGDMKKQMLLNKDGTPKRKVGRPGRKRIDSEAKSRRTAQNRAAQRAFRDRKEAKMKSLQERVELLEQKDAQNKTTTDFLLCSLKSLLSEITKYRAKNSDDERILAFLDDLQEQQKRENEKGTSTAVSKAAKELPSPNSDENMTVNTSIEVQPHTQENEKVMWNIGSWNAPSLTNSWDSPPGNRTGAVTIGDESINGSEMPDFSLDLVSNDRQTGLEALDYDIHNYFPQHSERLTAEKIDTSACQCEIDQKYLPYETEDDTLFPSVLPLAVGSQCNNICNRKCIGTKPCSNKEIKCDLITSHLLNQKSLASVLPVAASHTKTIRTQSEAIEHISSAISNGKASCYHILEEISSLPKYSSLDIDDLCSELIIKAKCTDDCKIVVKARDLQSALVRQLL
Procedure, shortened: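 Detection of bound protein used fluorescent anti-GST, with scans normalised by masliner. The proteins were GST-tagged yeast transcription factors applied at about 100-200 nM to universal all-10-mer Agilent arrays made double-stranded by primer extension. Each ungapped eight-base word, pooled with its reverse complement, was scored with an E-score from the Universal PBM Analysis Suite.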

Compared with ATTCTGAG, TATTGTCA is higher in “PBM E-score” value: 0.00037 for the first, 0.203 for the second.

First: ATTTCACA
Second: ACATGCCT
The “PBM E-score” value of the first is higher: 0.139 for the first, -0.104 for the second.

First: CATCTTCG
Second: GTCACTGA
The “PBM E-score” value of the first is higher: 0.184 for the first, -0.0728 for the second.

First: CTTACAAA
Second: ACCGCCGA
The “PBM E-score” value of the first is higher: 0.372 for the first, -0.0944 for the second.

First: GTCAATTA
Second: ACGGTGCG
The “PBM E-score” value of the first is lower: 0.0509 for the first, 0.2 for the second.

First: ACACGAAA
Second: TAGTTATA
The “PBM E-score” value of the first is higher: 0.257 for the first, 0.068 for the second.

First: GACAATGC
Second: GAGATCCA
The “PBM E-score” value of the first is higher: 0.166 for the first, -0.139 for the second.

First: CGCGATCC
Second: AATTCCGA
The “PBM E-score” value of the first is lower: 0.146 for the first, 0.229 for the second.

First: AGATCTGG
Second: GGCAACAA
The “PBM E-score” value of the first is lower: -0.0847 for the first, 0.0372 for the second.

First: AGAGATTC
Second: AGCAGCGC
The “PBM E-score” value of the first is higher: 0.216 for the first, 0.00251 for the second.

First: GGTGAGTA
Second: CGCGCCAC
The “PBM E-score” value of the first is lower: -0.121 for the first, 0.00045 for the second.

Compared with AGACCCAA, CCAGCGTC is lower in “PBM E-score” value: -0.0921 for the first, -0.178 for the second.

First: CACTCATC
Second: AGTAGCAA
The “PBM E-score” value of the first is lower: -0.00019 for the first, 0.164 for the second.

Compared with CAAAACCC, AGACCACG is lower in “PBM E-score” value: 0.101 for the first, -0.185 for the second.

Compared with GTGGAAAA, GTGCGAAA is higher in “PBM E-score” value: -0.033 for the first, 0.0402 for the second.

Going from AGGACTTC to AAACAAGA, the “PBM E-score” value rises from -0.103 to -0.0107.

First: GAGGAAGC
Second: ATGACAGC
The “PBM E-score” value of the first is lower: -0.0056 for the first, 0.231 for the second.

First: GATGGAGA
Second: CTCAGCTC
The “PBM E-score” value of the first is higher: -0.0421 for the first, -0.0961 for the second.

Compared with CCTCCCTA, AATACTAG is higher in “PBM E-score” value: -0.222 for the first, 0.165 for the second.

First: CGACCAAC
Second: AAGATCTC
The “PBM E-score” value of the first is higher: 0.0088 for the first, -0.0214 for the second.

First: GGGAACAC
Second: CTCTACCC
The “PBM E-score” value of the first is lower: 0.0161 for the first, 0.0485 for the second.

Going from ACGGGGCC to CTTTAAGC, the “PBM E-score” value rises from -0.108 to 0.0294.

Going from CTCGATCC to ACCCATGC, the “PBM E-score” value falls from 0.0631 to -0.0389.

Going from TCATCAGA to AGACACCG, the “PBM E-score” value falls from 0.0421 to -0.0528.

Going from TATTTCGA to AACCAACG, the “PBM E-score” value falls from 0.226 to 0.0211.

Going from GGTGGTAC to GGCTGCCA, the “PBM E-score” value rises from -0.175 to -0.14.

Going from CCCCGTAC to AACGGAGC, the “PBM E-score” value rises from -0.224 to -0.187.

First: CACACGTC
Second: AAGTCACT
The “PBM E-score” value of the first is higher: -0.0941 for the first, -0.101 for the second.

Going from ACTCCCGG to CAGATGTC, the “PBM E-score” value falls from -0.0908 to -0.18.

Compared with ACCACCGG, CAGCAAGC is lower in “PBM E-score” value: -0.176 for the first, -0.242 for the second.

Compared with ACTCACTC, CACCACTC is higher in “PBM E-score” value: 0.0557 for the first, 0.0728 for the second.

First: GTCACGCA
Second: CCATACAG
The “PBM E-score” value of the first is higher: -0.00543 for the first, -0.0244 for the second.

Going from ACCCCTGG to ACTATAGA, the “PBM E-score” value rises from -0.271 to -0.00757.

First: AGCGGCAA
Second: GAGCCCCA
The “PBM E-score” value of the first is higher: 0.0335 for the first, -0.336 for the second.

Compared with AATTGAAC, CGAGCTTC is higher in “PBM E-score” value: -0.0424 for the first, 0.258 for the second.

First: AGCGCGCA
Second: AATCCCTC
The “PBM E-score” value of the first is higher: 0.355 for the first, 0.165 for the second.

Going from AGTTCAAG to GCCTATGA, the “PBM E-score” value falls from 0.152 to -0.145.

First: ACCATCTA
Second: AAGTTGAA
The “PBM E-score” value of the first is lower: -0.212 for the first, -0.153 for the second.

First: CATTTGCA
Second: CCATACTC
The “PBM E-score” value of the first is higher: 0.171 for the first, -0.0714 for the second.

First: AGAACCTA
Second: ATGTCTCG
The “PBM E-score” value of the first is higher: -0.045 for the first, -0.0801 for the second.

First: AATGCGAA
Second: GTACGTAA
The “PBM E-score” value of the first is lower: -0.0481 for the first, 0.0715 for the second.

Going from AACAGAGT to TAAGGCGA, the “PBM E-score” value rises from 0.0399 to 0.0486.

First: ACCTTACT
Second: GATGGATA
The “PBM E-score” value of the first is higher: 0.12 for the first, -0.042 for the second.

Going from CCCAAGAA to ATAACTCG, the “PBM E-score” value falls from 0.0477 to 0.00367.

First: GTTATAAC
Second: GGTAAACC
The “PBM E-score” value of the first is lower: -0.144 for the first, -0.104 for the second.

Going from GCCATAAA to AATCCAAT, the “PBM E-score” value rises from 0.125 to 0.167.

Compared with GAGTACCA, AGGTGTAC is lower in “PBM E-score” value: 0.0455 for the first, -0.0525 for the second.

Compared with AGTTCCAT, AAACACCT is lower in “PBM E-score” value: 0.0876 for the first, -0.051 for the second.

First: TATCGTGA
Second: GGTTGTGA
The “PBM E-score” value of the first is lower: -0.0114 for the first, 0.0429 for the second.

First: TTAGACAA
Second: GGCGTCTA
The “PBM E-score” value of the first is higher: 0.117 for the first, -0.11 for the second.

Compared with AAGATGTG, ACGCCCAC is lower in “PBM E-score” value: 0.0137 for the first, -0.123 for the second.

Going from GGACTACC to ACGCACCG, the “PBM E-score” value rises from -0.177 to 0.0681.

First: CGTTGCGA
Second: TCCAAAGA
The “PBM E-score” value of the first is lower: -0.123 for the first, -0.0468 for the second.

First: CTACTGAG
Second: CCTCAATA
The “PBM E-score” value of the first is higher: -0.0438 for the first, -0.334 for the second.

Compared with ATTACTGA, GCGCTGAA is lower in “PBM E-score” value: 0.182 for the first, 0.0173 for the second.

Compared with ATGACCTG, AAGAAAAA is higher in “PBM E-score” value: -0.143 for the first, 0.131 for the second.

Compared with GCTGACTA, GACGCAAA is lower in “PBM E-score” value: 0.335 for the first, 0.119 for the second.

Compared with TAATATAA, GAAGCGCC is lower in “PBM E-score” value: 0.332 for the first, -0.0668 for the second.

Going from TAGCTTAA to ACTATGCA, the “PBM E-score” value falls from 0.146 to 0.0796.

First: AAGAATCC
Second: CCCGCCCC
The “PBM E-score” value of the first is lower: -0.117 for the first, 0.0573 for the second.

Compared with ATCACTAA, CCATGCGA is lower in “PBM E-score” value: 0.112 for the first, 0.11 for the second.

Going from CTGATCGC to AATGAGTG, the “PBM E-score” value rises from -0.0234 to 0.0485.

Going from ATGCGGTC to ACATCTCG, the “PBM E-score” value falls from 0.0756 to 0.0707.

Going from AGGCATTC to AAGGATGC, the “PBM E-score” value rises from -0.195 to -0.0777.

First: CCTGCTAG
Second: AAATATTT
The “PBM E-score” value of the first is lower: -0.182 for the first, 0.228 for the second.

Compared with CTGCTGGC, AATTTTCA is higher in “PBM E-score” value: -0.321 for the first, 0.0453 for the second.

Compared with GACACTCA, CCACTCTA is higher in “PBM E-score” value: -0.0643 for the first, -0.0335 for the second.

Going from ACCGTCCG to ACTCCACT, the “PBM E-score” value rises from -0.109 to -0.0657.

Compared with CTGCCAGA, ACAGCTTG is higher in “PBM E-score” value: -0.109 for the first, 0.0747 for the second.

Going from ATATACCG to CGCAGCTA, the “PBM E-score” value falls from 0.217 to 0.0862.

Compared with AGTACACC, CTTTCACC is lower in “PBM E-score” value: 0.00647 for the first, -0.14 for the second.

First: TAATGCGA
Second: CCTAAGCC
The “PBM E-score” value of the first is higher: 0.0269 for the first, -0.105 for the second.

First: CCCGAACC
Second: CAAACCAG
The “PBM E-score” value of the first is lower: -0.119 for the first, -0.0298 for the second.

Going from CCTGGTAG to CCTTATAC, the “PBM E-score” value rises from -0.209 to -0.0554.

Going from CAGTCACG to CCGGTGCG, the “PBM E-score” value falls from 0.0409 to -0.0877.

Going from CAGTGGTC to GGTCCTGA, the “PBM E-score” value rises from -0.187 to 0.00923.

Compared with GGTAACAC, CACACCGG is lower in “PBM E-score” value: 0.0182 for the first, -0.101 for the second.

Compared with CACACGCA, CAGCCCGC is lower in “PBM E-score” value: -0.132 for the first, -0.145 for the second.

Compared with GAAACCAC, GTTACGAA is higher in “PBM E-score” value: -0.0261 for the first, 0.17 for the second.

Compared with ACGTGCAA, TGCGCTAA is higher in “PBM E-score” value: 0.142 for the first, 0.156 for the second.

Going from GCCGTTCC to GACTAGAC, the “PBM E-score” value falls from -0.00956 to -0.126.

Going from CAAACACG to ACGCTGCC, the “PBM E-score” value falls from 0.126 to -0.105.

First: ATTGGCAG
Second: CAGCAAAG
The “PBM E-score” value of the first is lower: -0.0523 for the first, 0.168 for the second.

Compared with TATCTTGA, AAACAATA is higher in “PBM E-score” value: -0.0983 for the first, 0.251 for the second.

Going from GTCTCGAA to AGTCTCTC, the “PBM E-score” value falls from -0.0248 to -0.232.

Compared with TTGAGAAA, GCGGACCA is higher in “PBM E-score” value: 0.1 for the first, 0.146 for the second.
